These are yes or no findings as the source states them, for the method shown. Binding seen in cells or lysates may run through a third protein.
Biological target: T1, p140Cap adaptor protein (UniProt Q9QWI6)
T1 sequence: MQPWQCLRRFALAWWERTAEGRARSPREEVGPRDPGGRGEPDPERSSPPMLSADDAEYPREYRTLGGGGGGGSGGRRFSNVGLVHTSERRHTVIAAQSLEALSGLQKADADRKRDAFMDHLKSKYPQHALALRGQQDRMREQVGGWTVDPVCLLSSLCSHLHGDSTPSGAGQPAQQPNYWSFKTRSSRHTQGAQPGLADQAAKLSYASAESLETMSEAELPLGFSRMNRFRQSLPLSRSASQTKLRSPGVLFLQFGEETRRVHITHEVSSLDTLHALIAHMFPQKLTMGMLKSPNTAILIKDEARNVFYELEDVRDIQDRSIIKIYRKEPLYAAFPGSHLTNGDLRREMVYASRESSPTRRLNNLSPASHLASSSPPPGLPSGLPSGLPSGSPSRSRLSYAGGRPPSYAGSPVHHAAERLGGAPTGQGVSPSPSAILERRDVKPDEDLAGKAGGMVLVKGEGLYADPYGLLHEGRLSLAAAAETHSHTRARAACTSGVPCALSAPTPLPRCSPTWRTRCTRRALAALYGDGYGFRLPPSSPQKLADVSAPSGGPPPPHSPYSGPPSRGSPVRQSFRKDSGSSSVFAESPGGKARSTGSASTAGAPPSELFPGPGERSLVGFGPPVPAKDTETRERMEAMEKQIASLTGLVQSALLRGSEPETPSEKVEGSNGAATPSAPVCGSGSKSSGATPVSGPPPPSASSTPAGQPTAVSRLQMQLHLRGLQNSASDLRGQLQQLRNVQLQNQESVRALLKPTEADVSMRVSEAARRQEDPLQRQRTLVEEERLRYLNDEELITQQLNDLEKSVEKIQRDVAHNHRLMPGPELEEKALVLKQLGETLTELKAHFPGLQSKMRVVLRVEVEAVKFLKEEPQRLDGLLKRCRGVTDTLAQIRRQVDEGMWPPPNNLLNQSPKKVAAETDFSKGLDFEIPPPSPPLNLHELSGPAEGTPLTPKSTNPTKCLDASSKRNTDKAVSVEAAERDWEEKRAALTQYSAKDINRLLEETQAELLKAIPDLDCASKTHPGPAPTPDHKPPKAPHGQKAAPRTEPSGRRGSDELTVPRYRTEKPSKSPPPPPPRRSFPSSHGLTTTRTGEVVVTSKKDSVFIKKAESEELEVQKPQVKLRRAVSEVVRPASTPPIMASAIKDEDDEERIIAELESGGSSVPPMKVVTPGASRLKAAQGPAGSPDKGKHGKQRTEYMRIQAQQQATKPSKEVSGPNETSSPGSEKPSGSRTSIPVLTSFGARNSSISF
Assay: co-IP; p140Cap immunoprecipitates (p140Cap Mab on protein G Dynabeads) from p140 and mock TUBO cell extracts, Western blot with specific antibodies

binding: no binding
Substance: Talin (mouse (endogenous in TUBO cells))

Reference: article PMC6803390
